Results as given in article PMC9963887 (Pharmaceuticals, 2023).

Legend:
[1] = general procedure: Fmoc solid-phase peptide synthesis; Rink amide MBHA LL; HBTU/DIPEA; PyBOP for (R)-NODA-GA(tBu)3; details: whole synthesis
[2] = general procedure: Fmoc solid-phase peptide synthesis; Fmoc-Thr(tBu) Wang resin; HBTU/DIPEA; PyBOP for (R)-NODA-GA(tBu)3; details: whole synthesis, scale 30.3 µmol
[3] = general procedure: Fmoc solid-phase peptide synthesis; Fmoc-Asn(Trt)-2-Cl-Trt resin; HBTU/DIPEA; PyBOP for (R)-NODA-GA(tBu)3; details: whole synthesis, scale 44 µmol
[4] = general procedure: Fmoc solid-phase peptide synthesis; Fmoc-Thr(tBu)-Wang; HBTU/DIPEA; PyBOP for (R)-NODA-GA(tBu)3; details: whole synthesis, scale 32.5 µmol
[5] = general procedure: Fmoc solid-phase peptide synthesis; Fmoc-Ile-Wang resin LL; HBTU/DIPEA; PyBOP for (R)-NODA-GA(tBu)3; details: whole synthesis

“Trp-Ser-Gly-Glu-Asn-Gly-Pro-Gly-Phe-Tyr-Asp-Tyr-Glu-Ala-PEG5-Lys(NODA-GA)-NH2” showed an isolated yield ([1]; scale 36 µmol) of 54%.

Work on “NODA-GA-PEG5-Ser-Tyr-Pro-Ile-Pro-Asp-Thr” yielded an isolated yield [2] of 59%.

For “NODA-GA-PEG5-His-Thr-Ser-Asp-Gln-Thr-Asn”, the isolated yield [3] was 21%.

Substance “Asn-Arg-Pro-Asp-Ser-Ala-Gln-Phe-Trp-Leu-His-His-PEG5-Lys(NODA-GA)-NH2” has an isolated yield ([1]; scale 36 µmol) of 49%.

For NODA-GA-PEG5-Leu-Ala-Arg-Leu-Leu-Thr, the isolated yield [4] was 74%.

Substance “Gln-Arg-His-Lys-Pro-Arg-Glu-PEG5-Lys(NODA-GA)-NH2” has an isolated yield ([1]; scale 27 µmol) of 50%.

Work on “NODA-GA-PEG5-Tyr-His-Trp-Tyr-Gly-Tyr-Thr-Pro-Gln-Asn-Val-Ile” yielded an isolated yield [5] of 50%.

In the case of “Asn-c[Cys-Val-Val-Gly-Tyr-Ile-Gly-Glu-Arg-Cys]-Gln-PEG5-Lys(NODA-GA)-NH2”, the isolated yield ([1]; scale 27 µmol) is reported as 10%.

Substance “Glu-c[Cys-Pro-Leu-Ser-His-Asp-Gly-Tyr-Cys-Leu-His-Asp-Gly-Val-Cys]-Met-PEG5-Lys(NODA-GA)-NH2” has an isolated yield [1] of 22%.

“Tyr-c[Cys-Leu-His-Aps-Gly-Val-Cys-Met-Tyr-Ile-Glu-Ala-Leu-Asp-Lys-Tyr-Ala-Cys]-Asn-PEG5-Lys(NODA-GA)-NH2” gave an isolated yield ([1]; scale 27 µmol) of 5%.

“Phe-Pro-Met-Phe-Asn-His-Trp-Glu-Gln-Trp-Pro-Pro-PEG5-Lys(NODA-GA)-NH2” showed an isolated yield ([1]; scale 36 µmol) of 32%.
